According to patent US20200376146A1, “NANOBIOLOGIC COMPOSITIONS FOR INHIBITING TRAINED IMMUNITY” (ICAHN SCHOOL OF MEDICINE, priority 2017, published 2020):
At least one compound was matched to its structure with a doubt left.

Columns and labels:
[1] = Hydrolysis of (pro-)drugs in nanobiologics; type: physicochemical; conditions: 4° C. in PBS
Method: (Pro-)drug recovery and hydrolysis were determined using the following procedure: an aliquot (200 μL) of the particle solution was dried under vacuum, acetonitrile (600 μL) was added and the suspension was sonicated for 20 minutes. The suspension was centrifuged to precipitate any solids and the remaining solution was analyzed using HPLC; except for the malonate derivatives which were analyzed using SFC-MS, and Dimethylmalonate which was analyzed by GC-MS.

[2] = test system: graft-infiltrating macrophages; assay: Heart transplant mouse model: myeloid cell profiling and graft-infiltrating macrophage cytokine, lactate, ChIP and gene array; type: in vivo, mice; conditions: six days after transplantation; allograft, blood and spleen
[3] = (Pro-)drug recovery in nanobiologics; type: physicochemical; conditions: 35 nm nanobiologics, microfluidic procedure

SMILES | hydrolysis of the (pro-)drug in the nanobiologic over time [1] | distribution of Ly-6Chi and Ly-6Clo macrophage subsets [2] | drug recovery [3]
CO[C@H]1C[C@@H]2CC[C@@H](C)[C@@](O)(O2)C(=O)C(=O)N2CCCC[C@H]2C(=O)O[C@H]([C@H](C)C[C@@H]2CC[C@@H](O)[C@H](OC)C2)CC(=O)[C@H](C)/C=C(\C)[C@@H](O)[C@@H](OC)C(=O)[C@H](C)C[C@H](C)/C=C/C=C/C=C/1C [Rapamycin, rapamycin] | hydrolysis was observed | not observed | –
CCc1cncnc1N1CCN(Cc2nc3ccc(C(F)(F)F)cc3[nH]2)CC1 [PF-4708671] | – | – | less than 1%
